{"source": "PubChem BioAssay AID1347076", "about": "(National Center for Advancing Translational Sciences (NCATS), 2019)", "note": "“And” between values parts separate entries of the source, which are not always exact repeats. Identical values can stand only once. The campaign covered roughly 400,000 compounds. About 13,000 (3.2%) were called active. The shares of active, inactive and inconclusive entries below differ from those in the screen. Calls come from the whole dose curve; as a rule, active = well fitted cell-killing curve with a large enough effect; inconclusive = small, poorly fitted or top-dose-only effect, or effect the other way; inactive = flat fitted curve, though single readings scatter. Potencies beside an inconclusive call are fits to weak or partial responses and may not hold up. % is set by controls: 0 for no effect and ±100 for the full control effect; potency is the fitted concentration of half-maximal effect.", "data": [{"assay": "qHTS assay for MDR1-selective chemotherapeutics: Primary screen using the drug-selected MDR subline cells KB-V1; note: nearly all actives have a fitted effect of over 60% in size", "settings": "KB-V1 MDR cells viability, CellTiter-Glo, 72 h; activity change, negative = cytotoxicity: at 46.1 µM (top of the series)", "summary_of_the_method": "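qHTS viability screen in drug-selected KB-V1 MDR cells: 72 h compound treatment at 37 degrees C, ATP luminescence end point.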", "values": [{"smiles": "COC(=O)C1C(=O)C2=C(CC1C)NC(C)=C(C(=O)OC(C)C)C2c1ccc(C)o1", "note": "(stereo not given)", "Potency": "inconclusive: 6.51 µM [cytotoxic, partial curve]"}, {"smiles": "O=[N+]([O-])c1cc(S(=O)(=O)Nc2cccc(Cl)c2)ccc1N/N=C/c1ccc(N2CCOCC2)cc1", "activity change, negative = cytotoxicity": "inactive: -4.26%"}, {"smiles": "CC(C)(C)CC(=O)OCC(=O)Nc1cc(C(C)(C)C)nn1-c1ccccc1", "Potency": "inconclusive: 18.4 µM [cytotoxic, single point]"}, {"smiles": "COc1ccc(C2(c3ccc(OC)cc3)NC(=O)N(CC(=O)Nc3ccc(OC(F)F)cc3)C2=O)cc1", "Potency": "inconclusive: 29.1 µM [cytotoxic, single point]"}, {"smiles": "CC1CCCCN1CC(=O)Nc1cc(S(=O)(=O)N2CCOCC2)ccc1N1CCCC1", "note": "(stereo not given)", "Potency": "inconclusive: 8.2 µM [cytotoxic, partial curve]"}, {"smiles": "O=C(Cn1c(=O)cnc2ccccc21)NCC(=O)Nc1ccc(F)c(F)c1", "activity change, negative = cytotoxicity": "inactive: 2.72%"}, {"smiles": "CCOC(=O)c1ccc(-c2c(-c3ccc4c(c3)OCO4)noc2C)cc1F", "Potency": "inconclusive: 23.1 µM [cytotoxic, single point]"}, {"smiles": "Cc1ccc(-n2nc(C)c3c(C)cc(=O)n(CC(=O)Nc4cc(Cl)ccc4C)c32)cc1", "activity change, negative = cytotoxicity": "inactive: -8.29%"}, {"smiles": "Cc1cccn2c(=O)cc(COc3ccc(NC(=O)C(C)C)cc3)nc12", "activity change, negative = cytotoxicity": "inactive: 2.17%"}, {"smiles": "CC(=O)Nc1ccc(S(=O)(=O)NCc2ccc(C(=O)NCCCN3CCC(C)CC3)cc2)cc1", "activity change, negative = cytotoxicity": "inactive: 0%"}, {"smiles": "COc1cc2ncnc(N[C@H](C)c3ccccc3)c2cc1OC", "Potency": "inconclusive: 2.91 µM [cytotoxic, partial curve]"}, {"smiles": "Cc1nc2ccccc2cc1OCc1ccccc1", "Potency": "inconclusive: 25.9 µM [cytotoxic, single point]"}, {"smiles": "COC(=O)c1ccc(CN2C(=O)NC(CC(C)C)C2=O)cc1", "note": "(stereo not given)", "activity change, negative = cytotoxicity": "inactive: -0.0532%"}, {"smiles": "Cc1ccc(OCC(=O)N(C)CC(=O)Nc2ccc(F)cc2)c([N+](=O)[O-])n1", "activity change, negative = cytotoxicity": "inactive: -15.5%"}, {"smiles": "O=C(CSc1ccccc1C(=O)O)Nc1ccc2c(c1)OCO2", "Potency": "inconclusive: 29.1 µM [rising, partial curve, poor fit]"}, {"smiles": "CCN(C(=O)COC(=O)c1cc(NS(=O)(=O)c2ccc(Cl)c([N+](=O)[O-])c2)ccc1O)C1CCCCC1", "Potency": "inconclusive: 16.4 µM [cytotoxic, partial curve, poor fit]"}, {"smiles": "CC(=O)N(CC(=O)Nc1sc(C)c(C)c1C(N)=O)Cc1ccccc1", "Potency": "inconclusive: 23.1 µM [cytotoxic, single point]"}, {"smiles": "Cn1c(=O)c2c(ncn2CC(=O)Nc2nc(-c3ccc(F)c(F)c3)cs2)n(C)c1=O", "Potency": "inconclusive: 20.6 µM [cytotoxic, partial curve]"}, {"smiles": "COc1cc(/C=C(\\C#N)c2nc3ccccc3s2)cc([N+](=O)[O-])c1O", "Potency": "inconclusive: 2.59 µM [rising, full curve, poor fit]"}, {"smiles": "CC(=O)N1CCN(c2ccc(NC(=O)c3ccc(C(C)(C)C)cc3)cc2)CC1", "Potency": "inconclusive: 18.4 µM [cytotoxic, single point]"}, {"smiles": "O=C(O)CSc1nnnn1C1CCCCC1", "activity change, negative = cytotoxicity": "inactive: 1.84%"}, {"smiles": "CCn1cc(/C=C(\\NC(=O)c2ccccc2OC)C(=O)N2CCOCC2)c2ccccc21", "Potency": "inconclusive: 9.2 µM [cytotoxic, partial curve, poor fit]"}, {"smiles": "Cc1cc(C)nc(NN=C2CCCC2)n1", "Potency": "inconclusive: 10.3 µM [rising, partial curve, poor fit]"}, {"smiles": "COc1ccccc1C(=O)NCC(=O)OCC(=O)c1ccc2c(c1)-c1ccccc1C2", "Potency": "inconclusive: 20.6 µM [cytotoxic, partial curve, poor fit]"}, {"smiles": "C=CCOC(=O)COc1ccc2c(C)c(C)c(=O)oc2c1C", "activity change, negative = cytotoxicity": "inactive: 6.71%"}, {"smiles": "CC(C)C(OC(=O)c1cccs1)C(=O)NCc1ccco1", "note": "(stereo not given)", "Potency": "inconclusive: 29.1 µM [cytotoxic, single point]"}, {"smiles": "Cc1c(C(=O)c2ccc(F)cc2)c2ccccn2c1CCc1ccccn1", "Potency": "inconclusive: 18.4 µM [cytotoxic, single point]"}, {"smiles": "CN1CCc2cccc3c2[C@H]1Cc1ccc(O)c(O)c1-3", "Potency": "inconclusive: 18.4 µM [cytotoxic, partial curve] and inconclusive: 29.1 µM [cytotoxic, single point] and inconclusive: 14.6 µM [cytotoxic, single point]"}, {"smiles": "CCOC(=O)C1(C)CCN1C(=O)c1ccc(OC)c(OC)c1", "note": "(stereo not given)", "activity change, negative = cytotoxicity": "inactive: -7.3%"}, {"smiles": "Cc1ccc(Cl)cc1NC(=S)NCc1cccn1C", "Potency": "inconclusive: 29.1 µM [cytotoxic, single point]"}, {"smiles": "COc1ccc(-c2ccc(OC)c([C@H]3[C@@H]4C=CCC[C@@]4(C)C(=O)N3Cc3ccccc3)c2)cc1OC", "Potency": "inconclusive: 29.1 µM [cytotoxic, single point]"}, {"smiles": "COC(=O)CSc1nc2ccc(NC(=O)c3ccccc3C(=O)N3CCOCC3)cc2s1", "Potency": "inconclusive: 18.4 µM [rising, partial curve]"}, {"smiles": "COc1ccc(-c2csc(N3CCN(c4cc5c(cc4Cl)nc(-c4ccncc4)n5CCOCCO)CC3)n2)cc1", "activity change, negative = cytotoxicity": "inactive: 0%"}, {"smiles": "Cc1ccc(NC(=O)N2CCOCC2)cc1NC(=O)N1CCOCC1", "activity change, negative = cytotoxicity": "inactive: 8.64%"}, {"smiles": "Cc1cc(C)cc(N(C(=O)Cn2nnc(-c3ccccc3)n2)C(C(=O)NC2CCCCC2)c2ccccn2)c1", "note": "(stereo not given)", "Potency": "inconclusive: 1.64 µM [cytotoxic, full curve]"}, {"smiles": "COc1ccc(OC)c(C(=O)CCCCC(=O)c2cc(OC)ccc2OC)c1", "Potency": "inconclusive: 20.6 µM [cytotoxic, single point]"}, {"smiles": "COc1ccc2oc(=O)c(C(=O)NCCc3c(C)[nH]c4ccc(C)cc34)cc2c1", "Potency": "inconclusive: 18.4 µM [cytotoxic, single point]"}, {"smiles": "CC(C)[C@@H]1Cc2[nH]c(=O)[nH]c(=O)c2[C@H](C)O1", "Potency": "active: 18.4 µM"}, {"smiles": "Cc1ccc2cc(C)c3nnc(SCC(=O)Nc4nc5c(s4)CCCC5)n3c2c1C", "Potency": "active: 18.4 µM"}, {"smiles": "COC(=O)[C@@]12C[C@@H](CC(=O)NCc3ccc(C)o3)C(=O)N(Cc3ccc4c(c3)OCO4)C1=CCC(C)(C)C2", "Potency": "inconclusive: 9.2 µM [cytotoxic, partial curve]"}, {"smiles": "COCCN(C(=O)c1csnn1)C(C(=O)NC1CCCCC1)c1ccccc1F", "note": "(stereo not given)", "activity change, negative = cytotoxicity": "inactive: -7.87%"}, {"smiles": "CCOc1cccc(CNCCSc2nnnn2C)c1", "Potency": "inconclusive: 14.6 µM [cytotoxic, partial curve, poor fit]"}, {"smiles": "Nc1ncnc2c1nc(SCCO)n2Cc1ccccc1", "Potency": "inconclusive: 23.1 µM [cytotoxic, single point]"}, {"smiles": "COc1ccc(NC(=O)c2ccc3ccccc3c2OC)cc1", "Potency": "inconclusive: 25.9 µM [cytotoxic, single point]"}, {"smiles": "Cc1ccc(OCc2ccccc2C)c([N+](=O)[O-])n1", "Potency": "inconclusive: 32.6 µM [cytotoxic, partial curve, poor fit]"}, {"smiles": "CC(C)C1CC(CCNCc2ccc(N(C)C)cc2)(c2ccccc2)CCO1", "note": "(stereo not given)", "Potency": "inconclusive: 29.1 µM [cytotoxic, single point]"}, {"smiles": "COc1cc(-c2nnc3sc(C4CCCCC4)nn23)cc(OC)c1OC", "Potency": "active: 18.4 µM"}, {"smiles": "COc1cc(/C=C2\\SC(=Nc3ccc(O)cc3)NC2=O)cc(OC)c1O", "activity change, negative = cytotoxicity": "inactive: 3.54%"}, {"smiles": "Cc1noc(C)c1S(=O)(=O)NC1CCCc2ccccc21", "note": "(stereo not given)", "Potency": "inconclusive: 0.461 µM [cytotoxic, full curve, poor fit]"}, {"smiles": "O=C(c1ccco1)n1nc(-c2ccco2)nc1SCc1ccccc1", "Potency": "inconclusive: 18.4 µM [cytotoxic, single point]"}, {"smiles": "Cn1cc(/C=N/NC(=O)c2ccc(C#N)cc2F)c2ccccc21", "activity change, negative = cytotoxicity": "inactive: 1.35%"}, {"smiles": "O=C(Nc1ccccc1-c1nnn(CC(=O)N2CCCc3ccccc32)n1)c1ccco1", "Potency": "inconclusive: 10.3 µM [cytotoxic, partial curve]"}, {"smiles": "COc1ccc(C(O)c2nccn2Cc2ccccc2)cc1OC", "note": "(stereo not given)", "Potency": "inconclusive: 18.4 µM [cytotoxic, single point]"}, {"smiles": "Cc1ccc(NC(=O)C2CCCN(C(=O)c3cnn(-c4ccccc4)c3-n3cccc3)C2)cc1", "note": "(stereo not given)", "Potency": "inconclusive: 20.6 µM [cytotoxic, partial curve]"}, {"smiles": "C=CCNC(=O)c1ccccc1NC(=O)c1ccccc1", "Potency": "inconclusive: 23.1 µM [cytotoxic, partial curve]"}, {"smiles": "Cc1ccc(NC(=O)CSCC(=O)Nc2cc(Cl)ccc2N2CCN(C)CC2)cc1", "Potency": "inconclusive: 18.4 µM [cytotoxic, single point]"}, {"smiles": "Cc1ccccc1NC(=O)Cc1nc(COC(=O)c2cc([N+](=O)[O-])ccc2N)cs1", "Potency": "inconclusive: 20.6 µM [cytotoxic, single point]"}, {"smiles": "COc1ccc(S(=O)(=O)N2CC(=O)Nc3ccccc32)cc1F", "Potency": "inconclusive: 20.6 µM [rising, single point]"}, {"smiles": "COc1ccc(-c2ccc(SCC(=O)NC3CCCCC3)nn2)cc1OC", "Potency": "inconclusive: 16.4 µM [cytotoxic, partial curve]"}, {"smiles": "COc1ccc(/C=C(\\C#N)C(=O)OCC(=O)NCc2ccco2)cc1", "activity change, negative = cytotoxicity": "inactive: -1.16%"}, {"smiles": "COc1ccc(-n2nc(C(=O)NCC(=O)N3CCN(c4ccccn4)CC3)c3ccccc3c2=O)cc1OC", "Potency": "inconclusive: 23.1 µM [cytotoxic, single point]"}, {"smiles": "CCOC(=O)c1nc(Nc2ccc(Nc3ccccc3)cc2)c2ccccc2n1", "Potency": "inconclusive: 18.4 µM [cytotoxic, single point]"}, {"smiles": "CC1(C(=O)Nc2ccc(F)cc2F)CCN1C(=O)CCC1CCCC1", "note": "(stereo not given)", "Potency": "inconclusive: 20.6 µM [cytotoxic, single point]"}, {"smiles": "CSc1nc(N)nc(SCC(=O)C23CC4CC(CC(C4)C2)C3)c1C#N", "Potency": "inconclusive: 16.4 µM [cytotoxic, single point]"}, {"smiles": "O=C(Nc1ccccc1C(=O)O)c1cc(S(=O)(=O)Nc2ccccc2)ccc1Cl", "Potency": "inconclusive: 29.1 µM [rising, single point]"}]}]}
